Laboratory results: PubChem BioAssay AID504467 (National Center for Advancing Translational Sciences (NCATS), 2011)
About 7,700 (2.3%) of roughly 330,000 compounds were called active. The inconclusive results got no clear call from the source; some entries with a clear call stand among them for comparison. The call rests on the fitted dose curve; in most records, active means well fitted inhibition curve with a large enough effect; inconclusive means small, poorly fitted or top-dose-only effect, or effect the other way; inactive means flat fitted curve, though single readings scatter. Potencies of inconclusive entries are doubtful fits and often do not repeat.

Experiment: qHTS screen for small molecules that inhibit ELG1-dependent DNA repair in human embryonic kidney (HEK293T) cells expressing luciferase-tagged ELG1; further: nearly all actives have a fitted effect of over 55% in size
Conditions: HEK293T ELG1-luciferase reporter, luminescence, 16 h, DNA damage induced by 5-fluorouridine; activity change, negative = inhibition: at 46.1 µM (top of the series)
Outline: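 In this reporter screen, reduction of luminescence relative to DMSO vehicle indicated activity. Compounds and 5-fluorouridine were added together to 2,000 cells per well, incubated for 16 hr at 37 °C, then developed with ONE-Glo.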
On the % scale 0 is the no-effect control and ±100 the full control effect; potency means the concentration at half of the fitted maximal effect.

| Compound | Potency | activity change, negative = inhibition |
| --- | --- | --- |
| Cc1nc2ccc(NC(=O)c3c(-c4ccccc4)noc3C)cc2s1 | inconclusive: 23.1 µM [inhibitor, partial curve, poor fit] |  |
| CC(C)(C)c1ccc(C(=O)NC(=S)NCC2CCCO2)cc1 (stereo not given) | inconclusive: 16.4 µM [activator, single point] |  |
| O=S(=O)(Nc1n[nH]c(C(F)(F)F)n1)c1ccccc1 | inconclusive: 29.1 µM [activator, single point] |  |
| O=C(CN1C(=O)NC2(CCCCCC2)C1=O)c1ccc(Cl)s1 | inconclusive: 29.1 µM [activator, single point] |  |
| O=c1c2c3nc4ccccc4nc3n(CC3CCCO3)c2ncn1CCc1ccccc1 (stereo not given) | inconclusive: 23.1 µM [inhibitor, single point] |  |
| Cc1nnc(SCc2ccc(F)cc2)s1 | inconclusive: 23.1 µM [activator, partial curve] |  |
| COc1cc2[nH]c(=O)c(C(=O)NCCCN3CCCCC3)c(O)c2cc1OC | inconclusive: 10.3 µM [activator, partial curve, poor fit] |  |
| COc1ccc(N(CC(=O)Nc2ccccc2F)S(=O)(=O)c2ccc(OC)c(OC)c2)cc1 |  | inactive: -13.3% |
| CCCCCc1nnc(NC(=O)C2=COCCO2)s1 | inconclusive: 7.3 µM [activator, partial curve] |  |
| O=[N+]([O-])c1cccc2c(S(=O)(=O)N3CCOCC3)cccc12 |  | inactive: -7.51% |
| O=C(Cn1ncn2nc(-c3ccccc3)cc2c1=O)NCc1ccccn1 |  | inactive: 20.8% |
| CNS(=O)(=O)c1cc(Nc2ncnc3sccc23)ccc1C |  | inactive: -18.1% |
| O=[N+]([O-])c1ccc(Sc2cccc3cccnc23)c2cccnc12 | inconclusive: 29.1 µM [inhibitor, single point] |  |
| O=C(Nc1ccccc1Cl)c1ccc2nccnc2c1 | inconclusive: 2.59 µM [activator, full curve] |  |
| COc1ccc(NC(=O)CN2c3cccc4cccc(c34)S2(=O)=O)c(OC)c1 | inconclusive: 18.4 µM [inhibitor, single point] |  |
| CCOC(=O)c1c(-c2ccc(C)cc2)csc1NC(=O)C1CCCO1 (stereo not given) | inconclusive: 29.1 µM [inhibitor, single point] |  |
| CC(C)(C)CC(C)(C)N=C1NS(=O)(=O)c2cc([N+](=O)[O-])ccc21 | inconclusive: 20.6 µM [inhibitor, partial curve, poor fit] |  |
| COc1cccc(NC(=O)c2ccc(NCCCN3CCC(C)CC3)c([N+](=O)[O-])c2)c1 | inconclusive: 20.6 µM [activator, partial curve] |  |
| O=C1/C(=C/c2ccccn2)SC(=S)N1CCc1ccccc1 | inconclusive: 23.1 µM [activator, partial curve] |  |
| O=S1(=O)CCN2C(=N1)Sc1c2ccc2c1CCCC2 | inconclusive: 18.4 µM [activator, partial curve, poor fit] |  |
| CCCc1cc(C(=O)Nc2ccc(C)cc2)no1 | inconclusive: 10.3 µM [activator, partial curve] |  |
| N#CCCn1cc(/C=N/NC(N)=S)c(-c2ccccc2)n1 | inconclusive: 23.1 µM [activator, single point] |  |
| CCN(CC)c1ccc2cc(C(N)=O)/c(=N\NC(=O)c3ccncc3)oc2c1 | inconclusive: 20.6 µM [inhibitor, partial curve] |  |
| c1ccc2c(Nc3ccc(N4CCOCC4)cc3)nc(N3CCOCC3)nc2c1 | active: 9.2 µM |  |

| Compound | Potency | activity change, negative = inhibition |
| --- | --- | --- |
| CCOc1ccc(NC(=O)c2ccccc2NC(=O)c2cccnc2)cc1 |  | inactive: -8.19% |
| COc1ccc(C2Nc3ccccc3C(=O)N2c2ccc(C)cc2)cc1Cn1cc([N+](=O)[O-])cn1 (stereo not given) | inconclusive: 25.9 µM [activator, partial curve, poor fit] |  |
| O=C(Nc1ccccn1)C1CCN(S(=O)(=O)c2ccccc2)CC1 | inconclusive: 10.3 µM [activator, partial curve] |  |
| Cc1ccn2cc(-c3ccc(S(=O)(=O)N4CCOCC4)cc3)nc2c1 | inconclusive: 28.2 µM [activator, single point] |  |
| Cn1nnnc1Sc1ncnc2scc(-c3ccc4c(c3)OCO4)c12 |  | inactive: -21.8% |
| CNC(=O)c1c(NC(=O)c2ccco2)sc(C)c1C | inconclusive: 0.0651 µM [activator, partial curve, poor fit] |  |
| O=C(Cc1ccccc1)Nc1nc(-c2cccs2)cs1 | inconclusive: 3.26 µM [activator, partial curve, poor fit] |  |
| Cc1ccc(OCC(=O)Nc2cc(C)on2)c([N+](=O)[O-])n1 | inconclusive: 18.3 µM [activator, single point] |  |
| O=S(=O)(Nc1ccc2c(c1)OCCO2)c1cccc(F)c1 | inconclusive: 20.6 µM [activator, partial curve, poor fit] |  |
| COCCOC(=O)c1c(C)oc2ccc(OC(=O)COc3c(F)c(F)c(F)c(F)c3F)cc12 | inconclusive: 29.1 µM [activator, single point] |  |
| O=C(CN(c1ccccc1)S(=O)(=O)c1ccc(Cl)cc1)Nc1cccnc1 |  | inactive: 4.82% |
| C=C(C)CNC(=S)NNC(=O)CCn1c2ccc(Cl)cc2c2cc(Cl)ccc21 |  | inactive: -17.9% |
| COC(=O)C1C(O)=C(C=Nc2ccc3ccccc3c2)C(=O)CC1(C)C (stereo not given) | inconclusive: 29.1 µM [activator, single point] |  |
| NC1=NC(=Nc2ccc(Cl)cc2)c2ccccc21 |  | inactive: 15.9% |
| Cc1ccccc1C(=O)N1CCC(C(=O)N2CCCc3ccccc32)CC1 | inconclusive: 10 µM [activator, partial curve] |  |
| CC(C)(C)OC(=O)C[C@@H]1C/C=C\C[C@@H](CC(=O)N(CCO)Cc2ccccc2)C(=O)N[C@H](C(C)(C)C)COC1=O | inconclusive: 29.1 µM [inhibitor, single point] |  |
| O=C(c1ccccn1)c1cc2ccccc2n1S(=O)(=O)c1ccccc1 |  | inactive: 16.8% |
| O=S(=O)(c1ccccc1)N(CC(O)COc1ccccc1)c1ccccc1 (stereo not given) | inconclusive: 29.1 µM [inhibitor, single point] |  |
| O=C(CN1C(=O)NC2(CCCC2)C1=O)NC(c1ccccc1)c1ccccc1 |  | inactive: -3.67% |
| Cc1ccc2nc(-c3cccc(Br)c3)cc(C(=O)Nn3cnnc3)c2c1 | inconclusive: 18.3 µM [activator, partial curve] |  |
| COC(=O)[C@@]1(C)[C@H]2C(=O)N(C)C(=O)[C@H]2[C@H]2CN=C(SCc3ccc(C#N)cc3)N21 |  | inactive: 27.4% |
| Cc1cccc(C(=O)Oc2ccc(/C=N/NC(=O)Cc3ccc([N+](=O)[O-])cc3)cc2)c1 | inconclusive: 8.2 µM [activator, partial curve] |  |
| COc1ccccc1NC(=S)Nc1ccc2cn[nH]c2c1 |  | inactive: 14.4% |
| COCCn1c(=S)[nH]c2cc(C(=O)N3CCN(c4ccccc4OC)CC3)ccc2c1=O |  | inactive: -14.1% |

| Compound | Potency | activity change, negative = inhibition |
| --- | --- | --- |
| BrC(/C=C\c1ccccc1)=N/Nc1nc(N2CCOCC2)nc(N2CCOCC2)n1 | active: 11.6 µM |  |
| CN(C)CCNC(=O)/C=N/O | inconclusive: 13 µM [activator, partial curve, poor fit] |  |
| COc1cc(SC)ccc1C(=O)NCC1CCCCC1 | inconclusive: 18.3 µM [activator, partial curve] |  |
| CC(C)(C)SCCNC(=O)c1ccc(Cl)c([N+](=O)[O-])c1 | inconclusive: 20.6 µM [activator, single point] |  |
| CCC(=O)NC(c1cccs1)c1cc(Cl)c2cccnc2c1O (stereo not given) |  | inactive: 1.59% |
| CC1(c2cc(F)ccc2F)NC(=O)N(CC(=O)Nc2cccc(S(=O)(=O)N3CCCC3)c2)C1=O (stereo not given) | inconclusive: 23.1 µM [inhibitor, single point] |  |
| O=C(CCN1C(=O)/C(=C/c2cccs2)SC1=S)Nc1ccc(C(=O)O)cc1 |  | inactive: -2.33% |
| O=C(Cn1nc(C(F)(F)F)cc1C1CC1)NCc1ccccc1F |  | inactive: -16.1% |
| Cn1cccc1Cc1nnc(SCC(=O)N2CCc3ccccc32)n1-c1ccc(F)cc1 | inconclusive: 16.4 µM [inhibitor, partial curve, poor fit] |  |
| CCCOc1ccc2ccccc2c1/C=N/n1c(C)nnc1-n1nc(C)cc1C | inconclusive: 9.2 µM [inhibitor, partial curve] |  |
| O=C(Nc1nccs1)c1cc2sccc2n1Cc1ccc(F)cc1 | inconclusive: 29.1 µM [activator, single point] |  |
| CCOC(=O)c1sc(S(C)(=O)=O)c2c1CCc1conc1-2 |  | inactive: -8.16% |
| CC[n+]1ccc2cc(OC)c(OC)cc2c1Cc1ccc(OC)c(OC)c1 |  | inactive: 4.78% |
| CN1CCN(NC(=O)c2cn(-c3ccccc3)nc2-c2cccs2)CC1 |  | inactive: 24.5% |
| O=C(/C=C/c1ccc2c(c1)OCO2)c1ccccn1 | inconclusive: 20.6 µM [activator, partial curve] |  |
| CCCCC(CC)C(=O)Nc1ccc(C)c(O)c1 (stereo not given) |  | inactive: 4.56% |
| COc1ccc(Cl)cc1NC(=O)NCCN1CCCCC1 | inconclusive: 29.1 µM [activator, single point] |  |
| CN(CC(=O)Nc1ccc(F)cc1)C(=O)COC(=O)c1cc(S(=O)(=O)N(C)C)ccc1N1CCCC1 | inconclusive: 4.61 µM [inhibitor, single point] |  |
| COc1cc2c(cc1C1NC(=S)NC(C)=C1C(N)=O)CCCC2 (stereo not given) | inconclusive: 9.2 µM [activator, partial curve] |  |
| C=CCNc1nc(-c2ccccc2)c(C(=O)OCC)cc1C#N | inconclusive: 5.8 µM [inhibitor, partial curve] |  |
| CNC(=O)c1sc(-c2cccs2)nc1C | inconclusive: 18.3 µM [activator, single point] |  |
| COc1cc(C(=O)OCCCN2CCOCC2)ccc1O | inconclusive: 23.1 µM [activator, single point] |  |

Grouped by structure: those above with an aryl thioether with sulfur outside any ring (5)

| Compound | Potency | activity change, negative = inhibition |
| --- | --- | --- |
| Cc1nnc(SCc2ccc(F)cc2)s1 | inconclusive: 23.1 µM [activator, partial curve] |  |
| O=[N+]([O-])c1ccc(Sc2cccc3cccnc23)c2cccnc12 | inconclusive: 29.1 µM [inhibitor, single point] |  |
| Cn1nnnc1Sc1ncnc2scc(-c3ccc4c(c3)OCO4)c12 |  | inactive: -21.8% |
| COc1cc(SC)ccc1C(=O)NCC1CCCCC1 | inconclusive: 18.3 µM [activator, partial curve] |  |
| Cn1cccc1Cc1nnc(SCC(=O)N2CCc3ccccc32)n1-c1ccc(F)cc1 | inconclusive: 16.4 µM [inhibitor, partial curve, poor fit] |  |
